The AC50 is the concentration at which the activity in the assay is half-maximal. High values mean activity only at high concentration, low ones activity at low concentration.

The other results are listed elsewhere or left out. These are further read-outs of the screen, such as a control signal, another cell line or another target. No call is given for them. Most of these compounds were active or inconclusive in the main read-out, so they are no random draw. Potencies come from curve fits of mixed quality, noted in brackets.

Results on 16 compounds are retold here after PubChem BioAssay AID2685 (National Center for Advancing Translational Sciences (NCATS), 2010).

The assay in a line: qHTS Assay for Lipid Storage Modulators in Drosophila S3 Cells.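 For cell number change: cells counted by Cell Tracker Red CMTPX staining in the red channel.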 Conditions: BODIPY lipid droplet fluorescence, 18-24 h; for cell number change: measured here: cell count max response, cells fed with added oleic acid. The essentials: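 Drosophila S3 cells loaded with oleic acid (400 uM, as added) and compounds at several concentrations; lipid droplets imaged by 488-nm laser-scanning cytometry, 500–530 nm intensity and object ratio to cell channel. Percent activity normalized to 20 uM Triacsin C.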
A general note: qHTS replaces the single test concentration by a dilution series.

Where [1] appears, read: measured here: lipid fluorescence (Fed channel) AC50, cells fed with added oleic acid.
Where [2] appears, read: measured here: cell number channel AC50, cells fed with added oleic acid.

`CN(C)N=Nc1ccc(S(=O)(=O)/N=C(\O)c2ccccc2)cc1`: the cell number change came to 2.47%. Besides, the AC50 under setting [1] was 23.1 µM [rising, partial curve].

Take `Cc1ccc(/C=N/NC(=O)CSc2nc3ccccc3c(=O)n2-c2ccccc2)s1`: the cell number change is -22.7%. The AC50 under setting [2] was 6.51 µM [rising, single point]. Besides, the AC50 under setting [1] is 1.64 µM [rising, full curve].

As to `COCCNC(=O)CN(Cc1ccc(Cl)cc1)S(C)(=O)=O`, under setting [1], the AC50 is 20.6 µM [falling, partial curve].

On to `O=C(NCc1cccnc1)c1cnn2ccccc12`, for which the cell number change was determined as 63.9%. Also, the AC50 under setting [2] is 29.1 µM [rising, single point]. Besides, under setting [1], the AC50 is 0.00517 µM [falling, full curve, poor fit].

`CC1CCCN(Cc2csc(N)n2)C1` (centres undefined): the cell number change was -46.7%. Besides, the AC50 under setting [2] is 0.231 µM [falling, full curve, poor fit]. Moreover, the AC50 under setting [1] was 20.6 µM [falling, partial curve, poor fit].

For the compound `Cc1cccc(N2C(=O)c3ccccc3C2=O)n1`, the cell number change was -50%. Under setting [2], the AC50 was 20.6 µM [falling, single point].

In the case of `Cc1ccc(CN2CC(C(=O)Nc3cccc(C)n3)CC2=O)cc1` (centres undefined), the cell number change turned out to be 7.99%. Moreover, under setting [1], the AC50 is 4.61 µM [falling, full curve].

Consider `O=C(NC1CC2CCCC(C1)N2C(=O)NC1CCCCC1)c1ccccc1` (centres undefined), for which the cell number change is -21.3%. Moreover, under setting [1], the AC50 was 0.259 µM [falling, full curve, poor fit].

On to `Fc1ccc(CO/N=C/C2=C(Cl)c3ccccc3CC2)cc1`, for which the cell number change is 5.05%. In addition, the AC50 under setting [1] is 5.8 µM [falling, partial curve].

In the case of `O=C(c1ccccc1Cl)N(Cc1ccc(Br)cc1)N1C(=O)CCC1=O`, the cell number change is -37.4%.

With `CCCCn1c(N)c(N(CCOC)C(=O)CCCc2nc3ccccc3s2)c(=O)[nH]c1=O`, the AC50 under setting [1] was 0.103 µM [falling, full curve, poor fit].

As for `Cc1ccc(OCc2nnc(SCC(=O)Nc3nccs3)n2-c2ccccc2)cc1C`, the cell number change came out at 39.8%. For the same compound, the AC50 under setting [2] was 18.4 µM [rising, single point]. Further, the AC50 under setting [1] is 0.731 µM [rising, single point].

As to `COc1ccc(Br)cc1S(=O)(=O)N1CCOCC1`, the cell number change was -198%. Also, the AC50 under setting [2] was 29.1 µM [falling, single point].

`COc1cccc(NC(=O)N2CCCC2C(=O)NCc2ccco2)c1` (centres undefined): the cell number change was determined as 24.4%. Also, the AC50 under setting [2] was 1.46 µM [rising, full curve, poor fit].

In the case of `COC(=O)c1ccc(NCCc2csc(-c3ccc(C)cc3)n2)c([N+](=O)[O-])c1`, the cell number change was -89.3%. Besides, the AC50 under setting [2] was 29.1 µM [falling, single point]. The AC50 under setting [1] is 29.1 µM [falling, single point].

On to `Cc1ccc(S(=O)(=O)N2CCCC(C(=O)Nc3cccnc3)C2)cc1` (centres undefined), for which the AC50 was 0.164 µM [falling, full curve, poor fit] under setting [2] and 0.13 µM [falling, full curve, poor fit] under setting [1].
